Laboratory results: PubChem BioAssay AID686937 (Drosophila RNAi Screening Center, 2013)
Assay: 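Genes whose loss weakens secretory pathway function in fly cells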 (primary screen). Cell system: Drosophila S2 cells expressing secreted horseradish peroxidase. Knock-down reagent: long dsRNA against Drosophila genes. Time to read-out: about 5.5 days (5 days dsRNA, then 12 h reporter induction). Challenge: reporter expression induced after 5 days of dsRNA, read 12 h later; inducer not stated. Read-out: 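Chemiluminescent measurement of peroxidase in the medium 12 h after reporter induction, following 5 days of dsRNA, given as a z-score per plate; higher means more secretion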. Reading the numbers: z-score: higher = more reporter secreted into medium.
In all, the deposit lists about 23,000 reagents; this is a random part of those that have a named target and a result. 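Reduced-secretion tags in replicate 1 do not always agree with the z-scores; no criterion for assigning the tags was given.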 The numbers tell different reagents against one gene apart. A plus sign joins genes that one reagent is predicted to hit. Not given: the amount of reagent.

Gene,reagent,"z-score, replicate 1","z-score, replicate 2","z-score, replicate 3","z-score, replicate 4","phenotype, replicate 1"
BthD (BthD selenoprotein),1,0.04,-0.23,,,
CG13081,1,0.39,0.25,,,
CG11069,1,-0.05,-0.02,,,
bdg (bedraggled),1,0.32,0.42,,,
CG6321,1,0.2,0.16,,,
Oda (Ornithine decarboxylase antizyme),1,0.39,0.46,,,
CR18275 + CR18166 + CG32817,1,0.28,0.14,,,
dec (defective chorion),1,0.09,-0.05,,,
dec (defective chorion),2,-0.09,-0.08,,,
SP1029,1,0.22,0.33,,,
CG33775,1,-0.89,0.23,,,
Acsx3 (Acyl-CoA synthetase X3),1,0.22,0.2,,,
Adk1 (Adenosine kinase 1),1,0.32,0.55,,,
robl62A,1,-0.25,0.31,,,
gammaCOP (Coat Protein (coatomer) gamma),1,-5.77,-5.99,,,reduced secretion
Mdh1 (Malate dehydrogenase 1),1,-0.03,0.12,,,
CG43174 (retired record) + CG43173 (retired record),1,0.3,0.36,,,
CG2006,1,0.32,0.22,0.12,1.08,
l(2)k09848 (lethal (2) k09848),1,-0.04,0.05,,,
Cyp6w1 (Cytochrome P450 6w1),1,-0.11,0.06,,,
CG15005,1,0.49,0.32,,,
CG7755,1,0.57,0.34,,,
CG4004,1,0.35,0.62,,,
CG4004,2,0.34,0.61,,,
CG42249,1,0.3,0.51,,,
CG42249,2,0.54,0.59,,,
SLIRP2 (SRA stem-loop interacting RNA binding protein 2),1,0.2,0.29,,,
CG3894,1,0.22,0.27,,,
CG3894,2,0.52,,,,
CG3894,3,0.17,0.32,0.5,0.36,
RpS20 (Ribosomal protein S20),1,-3.05,-3.16,,,reduced secretion
Mipp1 (Multiple inositol polyphosphate phosphatase 1),1,0.24,0.12,,,
Ccn,1,0.07,0.4,,,
Ccn,2,-1.96,-1.15,,,reduced secretion
Ccn,3,0.25,0.5,,,
Ccn,4,-0.2,-0.18,,,
CG10492,1,0.64,0.28,,,
PCB (Pyruvate carboxylase),1,0.41,0.37,,,
Obp99a (Odorant-binding protein 99a),1,-0.51,-1.7,,,
heca (headcase),1,-1.58,-2.01,,,reduced secretion
beag,1,0.16,0.34,,,
Coq7 + shf,1,0.31,0.64,,,
CG17715,1,0.46,0.06,,,
hyx (hyrax),1,-1.62,-1.42,,,reduced secretion
Npc2g (Niemann-Pick type C-2g),1,-0.09,0.38,,,
Marcal1,1,-0.31,0.1,,,
CG15403,1,0.49,0.36,,,
Stlk (Ste20-like kinase),1,-0.22,0.04,,,
rho-4 (rhomboid-4),1,0.2,0.42,,,
rho-4 (rhomboid-4),2,0.38,0.41,,,
CG6067,1,0.16,0,,,
Mgat4b,1,0.17,0.11,,,
Ciao1,1,0.48,0.51,,,

Entries listed so far whose target name begins with S or s:
Gene,reagent,"z-score, replicate 1","z-score, replicate 2","z-score, replicate 3","z-score, replicate 4","phenotype, replicate 1"
SP1029,1,0.22,0.33,,,
SLIRP2 (SRA stem-loop interacting RNA binding protein 2),1,0.2,0.29,,,
Stlk (Ste20-like kinase),1,-0.22,0.04,,,

The listing continues.
Gene,reagent,"z-score, replicate 1","z-score, replicate 2","z-score, replicate 3","z-score, replicate 4","phenotype, replicate 1"
CG10383,1,0.17,0.2,,,
CG30357,1,-0.55,0,,,
Prm (Paramyosin),1,0.38,0.54,,,
Prm (Paramyosin),2,0.27,0.33,,,
Prm (Paramyosin),3,0.01,-0.17,,,
Caper,1,-1.16,-0.57,,,
Gbp2 (Growth-blocking peptide 2),1,0.09,0.1,,,
velo (veloren),1,-4.31,-4.04,,,reduced secretion
velo (veloren),2,-0.55,-0.33,,,
CG12128 + CG1407,1,0.52,0.61,,,
Spn28B (Serpin 28B),1,-0.3,0.22,0.28,-0.03,
twe (twine),1,0.25,0.29,,,
bi (bifid),1,0.38,0.39,,,
CG3663,1,0.11,0.31,,,
Jhedup (Juvenile hormone esterase duplication),1,0.4,0.08,,,
CG8728,1,0.02,0.17,,,
Galphas (G protein alpha subunit s),1,0.23,0.05,,,
DENR (Density regulated protein),1,0.42,0.53,,,
Doc3 (Dorsocross3),1,0.26,0.35,,,
CG34281,1,-0.48,-0.22,,,
CG43218,1,-1.13,0.5,,,
Nthl1 (Nth-like DNA glycosylase 1),1,0.25,0.28,,,
lncRNA:CR32730 (long non-coding RNA:CR32730),1,1.36,0.49,,,
CG13408,1,0.29,0.42,,,
CG13408,2,0.16,0.07,,,
CG8646,1,0.24,0.29,,,
CG14840,1,0.37,0.11,,,
Gr93d (Gustatory receptor 93d),1,0.13,0.11,,,
bisc (biscotti),1,0.05,0.09,,,
CG12744,1,0.31,0.34,,,
jb (jean-baptiste),1,0.47,0.25,,,
PIG-G (Phosphatidylinositol glycan anchor biosynthesis class G),1,0.14,0.33,,,
CG13036 (retired record),1,0.24,0.09,,,
CG7497,1,0.17,0.58,,,
Tdg (Thymine DNA glycosylase),1,0.63,0.54,,,
Tdg (Thymine DNA glycosylase),2,0.32,0.37,,,
Ets21C (Ets at 21C),1,0.2,0.25,,,
eIF5 (eukaryotic translation initiation factor 5),1,-1.18,-1.22,,,
lncRNA:CR31781 (long non-coding RNA:CR31781),1,-7.74,0.53,,,reduced secretion
lncRNA:CR31781 (long non-coding RNA:CR31781),2,0.83,0.41,,,
CG40298,1,0.65,0.42,,,
Snap25 (Synaptosomal-associated protein 25kDa),1,0.69,0.14,,,
Snap25 (Synaptosomal-associated protein 25kDa),2,0.75,0.22,,,
Max,1,0.08,0.27,,,
Syx17 (Syntaxin 17),1,0.49,0.27,,,
CG5928,1,0.32,0.24,0.26,0.19,
mRpS25 (mitochondrial ribosomal protein S25),1,-0.06,-0.23,,,
CG30419,1,-0.39,0.19,0.34,0.32,
CG30419,2,0.19,0.09,0.3,0.21,
CG30419,3,1.67,0.41,,,
CG5273,1,0.21,0.31,,,
